The text below walks through data of article PMC7819943, “Rice protein-binding microarrays: a tool to detect cis-acting elements near promoter regions in rice”.

The list shows a part of the results.

For this experiment, the target named is T1, OsSMF1 (Oryza sativa, UniProt Q6ZLB0 1-436).
T1 sequence: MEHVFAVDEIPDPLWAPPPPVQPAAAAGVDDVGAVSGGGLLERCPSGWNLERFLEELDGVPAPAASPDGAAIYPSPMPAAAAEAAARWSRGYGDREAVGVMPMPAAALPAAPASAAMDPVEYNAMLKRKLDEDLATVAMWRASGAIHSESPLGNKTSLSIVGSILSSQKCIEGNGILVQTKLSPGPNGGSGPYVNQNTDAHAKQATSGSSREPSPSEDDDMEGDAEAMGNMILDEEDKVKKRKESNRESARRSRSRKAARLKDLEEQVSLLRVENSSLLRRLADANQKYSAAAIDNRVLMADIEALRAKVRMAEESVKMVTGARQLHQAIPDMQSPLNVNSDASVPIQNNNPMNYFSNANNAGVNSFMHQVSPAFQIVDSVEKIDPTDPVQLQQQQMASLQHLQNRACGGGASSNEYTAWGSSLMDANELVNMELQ
Put plainly: protein-binding microarray (RPBM); PBS, 2% BSA, 51.3 ng/ul salmon testes DNA, 50 uM zinc acetate, 200 nM TF, 25 C, 1 h; high values mean tight binding. As to conditions: protein: recombinant; tags: N-terminal polyhistidine and DsRed monomer fusion (pET32a); chain copies: 2; label: CyDye5-dUTP incorporated in the synthesized complementary strand; 3' TTTTT single-stranded linker to array surface; dsDNA, one strand shown. The essentials: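 Using Ni–NTA, transcription factors fused N-terminally to polyhistidine and DsRed were purified after expression in E. coli BL21-CodonPlus. These were incubated at 200 nM with a blocked, double-stranded custom Agilent array for 1 h at 25 °C in a buffer containing 50 µM zinc acetate, and the array was washed. The binding signal is per-feature fluorescence intensity (arbitrary units) on an Axon 4000B scanner.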
Take “TAAGTAAAATTCATACTCTCTCTATCTTGGAACATGTCTACGGAGTCACCTAGTGCAG”: the binding signal was 3230 fluorescence intensity (a.u.).

Turning to “GGCCTTCCCATAATGGGCCTATCTGGACAAAGCCCGCTTACGGAGTCACCTAGTGCAG”, the binding signal is 3330 fluorescence intensity (a.u.).

For “TCGGTTGATAGCTATCTTCTTAGTGCTTCTAAGAAATTGACGGAGTCACCTAGTGCAG”, the binding signal is 20900 fluorescence intensity (a.u.).

Turning to “GTGAATGTGCACGTGTTATAAGCGCATACGTTTATACTGTCGGAGTCACCTAGTGCAG”, the binding signal is 3670 fluorescence intensity (a.u.).

Take “GCAACCACCGCCGCCTCGCCGCAGCATCACCCGCAGCCGCCGGAGTCACCTAGTGCAG”: the binding signal is 3150 fluorescence intensity (a.u.).

For “AAACAGAGGTTTAAGACACAAACAGATAGCTAGGACTAGCCGGAGTCACCTAGTGCAG”, the binding signal was 30200 fluorescence intensity (a.u.).

“CAATAATACTATGAAAAGACCAAAGTGACGTGACCAATGGCGGAGTCACCTAGTGCAG”: the binding signal is 4170 fluorescence intensity (a.u.).

As for “AGTCTACTGCACAAATGATTAATATATACGCCACGTGAACCGGAGTCACCTAGTGCAG”, the binding signal was 3280 fluorescence intensity (a.u.).

As to “CAGGTGAAGAAATTCTGACGATGATGTGGTGAGGTGAGGTCGGAGTCACCTAGTGCAG”, the binding signal was 6150 fluorescence intensity (a.u.).

With “GGTAGTAAGGTCTTACCGTGCAGCCACCGCCAGGTGGGCCCGGAGTCACCTAGTGCAG”, the binding signal was 3280 fluorescence intensity (a.u.).

In the case of “GAGGCGTCTGTGGTGACTTCGTCAATCTCTCTAGGATTTGCGGAGTCACCTAGTGCAG”, the binding signal is 3770 fluorescence intensity (a.u.).

For the sequence “AAGAAGCCGCCTTGGTTTGGTAGTACAATTGTTCATCGGCCGGAGTCACCTAGTGCAG”, the binding signal was 3360 fluorescence intensity (a.u.).

With “GGTTTAGACGTGGCGGTGGTGGGTGGCGTACGTTTGGGTTCGGAGTCACCTAGTGCAG”, the binding signal is 5180 fluorescence intensity (a.u.).

Regarding “GCTGACGCGCGGGAACACGTGTGAGCCAGCACGTGACCACCGGAGTCACCTAGTGCAG”, the binding signal was 5280 fluorescence intensity (a.u.).

For “TTTATTTGTTTTGCTGATGATTTGCTACGTCAGCGAAACCCGGAGTCACCTAGTGCAG”, the binding signal was 27200 fluorescence intensity (a.u.).

Turning to “GAAGAAGATTGCCGGTTGACTTGTGGAGTCCACGTGGGACCGGAGTCACCTAGTGCAG”, the binding signal is 8320 fluorescence intensity (a.u.).

Take “GACACTGCCACCTCACTCTCCACTCCACTATATATACCCTCGGAGTCACCTAGTGCAG”: the binding signal is 8250 fluorescence intensity (a.u.).

As to “TCTTCTCCGCTACATCAGGCGCTTCAACATGCCTATGGGTCGGAGTCACCTAGTGCAG”, the binding signal is 22800 fluorescence intensity (a.u.).

“AGTTGTTCAAATTTGACTAAGGTAATATTCTACCGGCTTGCGGAGTCACCTAGTGCAG”: the binding signal is 3400 fluorescence intensity (a.u.).

As for “ACTGCTCGAGCCATGCGCGTACAACCAGACGTGTATAAACCGGAGTCACCTAGTGCAG”, the binding signal was 3500 fluorescence intensity (a.u.).

Turning to “GCTGGTGGCAACGCTCACCGTGGTCCCCGAGGGGAGCAAGCGGAGTCACCTAGTGCAG”, the binding signal was 31200 fluorescence intensity (a.u.).

Take “AGCGGCCGACAAGAGAGGAGTTGGGTGGCAGCGGGTGACGCGGAGTCACCTAGTGCAG”: the binding signal is 4290 fluorescence intensity (a.u.).

Take “TCGCCGAGAAGCCACGGCTAGTCACGTGTGTTGGAGGAGCCGGAGTCACCTAGTGCAG”: the binding signal is 4700 fluorescence intensity (a.u.).

“CCAAACTCTATTTGTATCATAAGCCACGCATAAAATTTGCCGGAGTCACCTAGTGCAG”: the binding signal was 3140 fluorescence intensity (a.u.).

“GAGGAAGAAGGATAGGGTGAGGATGACACGTGGGCCCCACCGGAGTCACCTAGTGCAG”: the binding signal is 14300 fluorescence intensity (a.u.).

For the sequence “GACTTGCCTTGCAACTGGAAAATGTCAGCACCTAAATCACCGGAGTCACCTAGTGCAG”, the binding signal was 3480 fluorescence intensity (a.u.).

“ATGATATCTTGATCATCTGGACGTCATCTTCTCCCAAGTCCGGAGTCACCTAGTGCAG”: the binding signal was 4770 fluorescence intensity (a.u.).

Regarding “ACAAGCACTGATTTTGGATGAGTTGTTGCCTGCAAGGCATCGGAGTCACCTAGTGCAG”, the binding signal is 3600 fluorescence intensity (a.u.).

For “CGAATGCGCGCGTTTCCGTCGTGTCAACCCGTCACGTTGCCGGAGTCACCTAGTGCAG”, the binding signal was 5110 fluorescence intensity (a.u.).

For “TTTGTCTTCTTACCTGCCAAGTCCTTGTCACTGTTGTAGCCGGAGTCACCTAGTGCAG”, the binding signal is 5770 fluorescence intensity (a.u.).

On to “GGTGAGCAAGAAGTCCATCATGTGAACTTGAGCGTTAGCGCGGAGTCACCTAGTGCAG”, for which the binding signal is 32500 fluorescence intensity (a.u.).

For the sequence “CAGAGGCAATATATGCATGCCGCTAGTTTTGTCTACATCACGGAGTCACCTAGTGCAG”, the binding signal was 3840 fluorescence intensity (a.u.).

For the sequence “AGCCACGCGTGAGCAAAGCGCGAGCGTGCCAGAGTCCACGCGGAGTCACCTAGTGCAG”, the binding signal was 3520 fluorescence intensity (a.u.).

In the case of “GCTCGATCGCTAGTCGTCGCCGTGTGTGTAATGCCATGGTCGGAGTCACCTAGTGCAG”, the binding signal was 3220 fluorescence intensity (a.u.).

As for “TGGTCAGGTGGATCACGACGTGGACGTGCACAAACTCGACCGGAGTCACCTAGTGCAG”, the binding signal is 5420 fluorescence intensity (a.u.).

Take “AACTATGTGAAAAGCATCAGCAGGCAGCAGCTCAAACACTCGGAGTCACCTAGTGCAG”: the binding signal was 3260 fluorescence intensity (a.u.).

On to “AATCGATTTCTTCAAGAAGTGTTGTCATCAAATGGTGTTCCGGAGTCACCTAGTGCAG”, for which the binding signal was 3520 fluorescence intensity (a.u.).

Turning to “CGGGGCCACCGTCATAGAGCGCGCAAGAGGCGTGACGTGTCGGAGTCACCTAGTGCAG”, the binding signal is 20100 fluorescence intensity (a.u.).

For the sequence “ATAATTATATTTACCACCATTGCCGTCAGGGCTCCGATGCCGGAGTCACCTAGTGCAG”, the binding signal was 3820 fluorescence intensity (a.u.).

Regarding “GTGCACCGCGTGCACCGGTGCATGACGCCCTTGTGGCTCGCGGAGTCACCTAGTGCAG”, the binding signal is 3760 fluorescence intensity (a.u.).

As for “TCTTAGTACCACTGACACGTGGGTCACGAATCATCATTGTCGGAGTCACCTAGTGCAG”, the binding signal is 13100 fluorescence intensity (a.u.).

Take “AACCCAACCCAACCCAACCCTTCTCTCCACGCAGGCGCAGCGGAGTCACCTAGTGCAG”: the binding signal was 3940 fluorescence intensity (a.u.).
